# Assay results from US20250320190A1, “Novel Inhibitors of Leucine Carboxyl Methyltransferase-1 (LCMT-1) and Methods of Use Thereof” (Temple University-Of The Commonwealth System of Higher …, priority 2024, published 2025).
# By UniProt entry, the sequences of proteins in these tests, tags left out. Where a name states a change or a piece, a line headed by the entry shows the natural chain unless it says otherwise.
# UniProt Q9UIC8: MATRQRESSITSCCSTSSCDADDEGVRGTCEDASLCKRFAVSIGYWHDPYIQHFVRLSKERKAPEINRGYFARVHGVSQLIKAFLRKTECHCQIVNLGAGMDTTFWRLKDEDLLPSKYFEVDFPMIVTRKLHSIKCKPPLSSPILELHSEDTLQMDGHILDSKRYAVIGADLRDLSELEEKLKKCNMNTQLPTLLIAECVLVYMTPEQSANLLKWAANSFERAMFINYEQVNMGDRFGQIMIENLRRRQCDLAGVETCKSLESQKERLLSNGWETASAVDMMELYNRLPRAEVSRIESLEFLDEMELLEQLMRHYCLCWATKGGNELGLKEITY
# At least one structure is not confirmed: it was looked up by name or label, or the drawing left a doubt.
# Biological target: T1, rhLCMT-1 (Homo sapiens, UniProt Q9UIC8)
# T1 construct: purchased SignalChem (Richmond, British Columbia, Canada)
# Test: rhLCMT-1 activity assay (dot immunoblot)
# Type: biochemical
# Conditions: each inhibitor 50 μM; 20 μM SAM; 37° C. for 30 minutes
# Method: Recombinant human LCMT-1 (rhLCMT-1) and rhPP2Ac were obtained from SignalChem (Richmond, British Columbia, Canada). Methyltransferase assays were performed with 100 ng rhLCMT-1 and 91.62 ng rhPP2Ac (2:1 molar ratio) (28) in reaction buffer containing 20 mM Tris (pH 8.0), 50 mM NaCl, 1 mM EDTA. rhLCMT-1 was incubated with Compound 1 (Chemspace, San Jose, California), Compound 2 (Akos Consulting and Solutions, Amtsgericht, Freiburg, Germany) or sinefungin, a SAM analogue, (Active Motif, Carlsbad, California), each at 50 μM final concentration, for 10 minutes at room temperature. rhPP2Ac was added to the reactions with 20 μM (final concentration) SAM (New England Biolabs, Ipswich, Massachusetts, FIG. 9). […] Reactions were incubated at 37° C. for 30 minutes (FIG. 10). Because the inhibitors gave false positive results with the secondary reactions used in colorimetric and bioluminescent methyltansferase assays, LCMT-1 activity was assessed using dot immunoblots. Reactions were applied to nitrocellulose membranes (Cytiva, Marlborough, Massachusetts). […] Membranes were treated with infrared (IR)-dye anti-mouse antibody (Li-Cor, Lincoln, Nebraska, catalog #926-32210, 1:20,000 dilution) and densities were measured with Li-Cor Image Studio (version 5.2) software. rhLCMT-1 inhibition assays were performed three times, each time with five replicates for each condition.
smiles,measurement,value
"Nc1ncnc2c1ncn2[C@@H]1O[C@H](C[C@@H](N)CC[C@H](N)C(=O)O)[C@@H](O)[C@H]1O [sinefungin, reference compound]",methylation of rhPP2Ac by rhLCMT-1,did not differ from the negative control
